The other results are listed elsewhere or left out. The main result of the screen is listed elsewhere. These columns were measured beside it and carry no call. Most of these compounds were active or inconclusive in the main read-out, so they are no random draw. Words in brackets tell the shape of the fitted curve; partial curves, single points and poor fits give uncertain potencies.
Test: qHTS Assay to Find Inhibitors of Chronic Active B-Cell Receptor Signaling
Details: ABC-DLBCL IkBa-CBG/CBR reporter, luminescence ratio (green luciferase fused to IkBa over red control in TMD8 lymphoma cells), 4 h
How it was run: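 Cell line TMD8 (human ABC DLBCL), stably expressing tet-inducible CBG68-IkBa fusion and CBR; IMDM/0.5% FBS; cpd up to 46 uM; dox induction, 4 h, 37C/5% CO2; dual luminescence; green/red ratio; MG132 control.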

[1] = measured here: CBR red luminescence, cell number

Row | SMILES | AC50 [1] | AC50 (measured here: IkBa-CBG green luminescence)
1 | N#CC1(NC(=O)COC(=O)c2cc(O)c3ccccc3c2O)CCCCC1 | 23.1 µM [falling, single point] | –
2 | COc1ccc(CCN2CC(C(=O)NCCc3ccccc3)CC2=O)cc1OC (centres undefined) | 12.6 µM [rising, single point] | –
3 | O=C(CC1SC(N2CCCCC2)=NC1=O)Nc1ccc(C(=O)Nc2ccccc2)cc1 (centres undefined) | 6.51 µM [rising, single point] | –
4 | Cc1nc(C)c(CC(=O)N2CCc3c([nH]c4ccccc34)C2c2ccccn2)s1 (centres undefined) | 35.5 µM [falling, single point] | –
5 | Cc1cccc(NC(=O)C2CCCN(S(=O)(=O)c3ccc4c(c3)oc(=O)n4C)C2)c1 (centres undefined) | 35.5 µM [falling, partial curve, poor fit] | –
6 | S=C(NCCCN1CCOCC1)N1CCN(c2cccc(Cl)c2)CC1 | 35.5 µM [falling, partial curve, poor fit] | –
7 | Cc1ccc(C(=O)N/N=C\c2ccncc2)s1 | 2.82 µM [rising, partial curve, poor fit] | –
8 | Cc1ccc(C2CC(C(F)(F)F)n3nc(C(=O)NCc4c(C)nn(C)c4C)c(Cl)c3N2)cc1 (centres undefined) | 12.6 µM [falling, partial curve] | –
9 | Nc1c(C(=O)Nc2ccc3c(c2)OCCO3)nnn1Cc1ccc(Br)cc1 | 32.6 µM [rising, single point] | –
10 | Cc1cc(C)n2nc(C(=O)Nc3ccc4c(c3)OCCO4)nc2n1 | 29.1 µM [falling, single point] | –
11 | CCCCC(=O)OCC(=O)Nc1cccc(S(=O)(=O)NC2=NCCCCC2)c1 | 14.1 µM [falling, partial curve] | –
12 | O=C(C(=O)N1CCN(c2cccc(Cl)c2)CC1)c1cn(CC(=O)N2CCOCC2)c2ccccc12 | 35.5 µM [falling, partial curve, poor fit] | –
13 | c1nc(N2CCCC2)c2[nH]cnc2n1 | 1.84 µM [falling, full curve, poor fit] | –
14 | O=C(c1ccc(Cl)cc1)N1CCCOC1 | 29.1 µM [rising, single point] | –
15 | CCOC(=O)Nc1c(C(=O)OC)[nH]c2cccc(OC)c12 | 4.61 µM [rising, single point] | –
16 | Cc1c(NC(=O)c2cc3c(s2)-c2ccccc2OC3)cccc1[N+](=O)[O-] | 29.1 µM [falling, single point] | –
17 | Cc1cccc(-n2nnc(C(=O)Nc3ccc(F)cc3)c2N)c1 | 1.46 µM [falling, full curve] | –

Some of the entries so far, in CSV form:
Row,SMILES,AC50 [1],AC50 (measured here: IkBa-CBG green luminescence)
12,O=C(C(=O)N1CCN(c2cccc(Cl)c2)CC1)c1cn(CC(=O)N2CCOCC2)c2ccccc12,"35.5 µM [falling, partial curve, poor fit]",–
17,Cc1cccc(-n2nnc(C(=O)Nc3ccc(F)cc3)c2N)c1,"1.46 µM [falling, full curve]",–

Further records.

Row | SMILES | AC50 [1] | AC50 (measured here: IkBa-CBG green luminescence)
18 | O=C(NC1CCCCCCC1)c1ccco1 | 6.51 µM [falling, partial curve, poor fit] | –
19 | Cc1ccc(Nc2nc3ccccc3[nH]2)nc1 | 16.4 µM [falling, partial curve, poor fit] | –
20 | CC1C/C(=C\c2ccccc2[N+](=O)[O-])c2nc3ccccc3c(C(=O)O)c2C1 (centres undefined) | 20 µM [rising, single point] | –
21 | C/C(CC(=O)Nc1ccc(Cl)cc1Cl)=N\NC(=O)C(=O)N1CCCC1 | 28.2 µM [falling, single point] | –
22 | Cc1cccc(C)c1NC(=O)c1c[nH]c2ccccc12 | 25.1 µM [rising, partial curve, poor fit] | –
23 | Cc1ccc(N(CC(=O)Nc2cc(C)cc(C)c2)S(=O)(=O)c2c(C)noc2C)cc1 | 7.08 µM [falling, full curve, poor fit] | –
24 | NC(=O)c1ccccc1NC(=O)/C=C/c1ccccc1 | 2.91 µM [falling, full curve] | –
25 | c1ccc(-c2nnc(CN3CCN(C(c4ccccc4)c4ccccc4)CC3)o2)cc1 | 3.16 µM [falling, partial curve] | –
26 | CC(C)NC(=O)C(OC(=O)c1ccccc1)C(OC(=O)c1ccccc1)C(=O)O (centres undefined) | 0.355 µM [falling, full curve, poor fit] | –
27 | O=c1oc(-c2cccs2)nc2sc3c(c12)CCCCC3 | 0.282 µM [falling, full curve] | –
28 | COc1cc(OC)cc(-c2nc3ccccc3c(=O)n2NC(=O)c2cccnc2Cl)c1 | 20.6 µM [rising, partial curve, poor fit] | –
29 | CCCn1nc(NC(=O)c2cccs2)c2cc3ccccc3nc21 | 15.8 µM [falling, partial curve, poor fit] | –
30 | Nc1ccc(-c2nc3nc(N)nc(N)c3nc2-c2ccc(N)cc2)cc1 | 35.5 µM [falling, single point] | –
31 | COc1cc(C(=O)Nc2ccc(C(=O)O)cc2)ccc1OC(C)=O | 12.6 µM [falling, partial curve, poor fit] | –
32 | N#Cc1c(NC(=O)C2CCCO2)sc2c1CCCCC2 (centres undefined) | 11.2 µM [rising, partial curve, poor fit] | –
33 | O=c1cc(CSc2nc3ccccc3c(=O)[nH]2)c2ccc(O)cc2o1 | 35.5 µM [falling, single point] | –
34 | COc1cc(NC(=O)CSc2nc3[nH]ncc3c(=O)n2-c2ccccc2C)cc(OC)c1OC | – | 20.6 µM [falling, partial curve, poor fit]
